Source: the supplement of paper PMC10849652
This is one part of the list.

By UniProt entry, the sequences of proteins in these tests, tags left out. Where a name states a change or a piece, a line headed by the entry shows the natural chain unless it says otherwise.
UniProt P41134: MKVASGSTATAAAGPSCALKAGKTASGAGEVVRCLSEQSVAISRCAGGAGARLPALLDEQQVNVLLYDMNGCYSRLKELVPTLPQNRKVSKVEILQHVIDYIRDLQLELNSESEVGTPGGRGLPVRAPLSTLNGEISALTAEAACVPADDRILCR
UniProt Q96T52: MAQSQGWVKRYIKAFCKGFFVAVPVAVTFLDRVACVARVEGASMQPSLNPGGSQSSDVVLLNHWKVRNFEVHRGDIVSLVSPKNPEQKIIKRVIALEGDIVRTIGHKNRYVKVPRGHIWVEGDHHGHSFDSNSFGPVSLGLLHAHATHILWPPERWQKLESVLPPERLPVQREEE
UniProt P61604, whole entry, looked up: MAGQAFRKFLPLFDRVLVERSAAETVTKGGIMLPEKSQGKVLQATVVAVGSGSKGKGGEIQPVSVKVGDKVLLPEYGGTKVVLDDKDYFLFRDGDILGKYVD
UniProt Q9NVR2, whole entry, looked up: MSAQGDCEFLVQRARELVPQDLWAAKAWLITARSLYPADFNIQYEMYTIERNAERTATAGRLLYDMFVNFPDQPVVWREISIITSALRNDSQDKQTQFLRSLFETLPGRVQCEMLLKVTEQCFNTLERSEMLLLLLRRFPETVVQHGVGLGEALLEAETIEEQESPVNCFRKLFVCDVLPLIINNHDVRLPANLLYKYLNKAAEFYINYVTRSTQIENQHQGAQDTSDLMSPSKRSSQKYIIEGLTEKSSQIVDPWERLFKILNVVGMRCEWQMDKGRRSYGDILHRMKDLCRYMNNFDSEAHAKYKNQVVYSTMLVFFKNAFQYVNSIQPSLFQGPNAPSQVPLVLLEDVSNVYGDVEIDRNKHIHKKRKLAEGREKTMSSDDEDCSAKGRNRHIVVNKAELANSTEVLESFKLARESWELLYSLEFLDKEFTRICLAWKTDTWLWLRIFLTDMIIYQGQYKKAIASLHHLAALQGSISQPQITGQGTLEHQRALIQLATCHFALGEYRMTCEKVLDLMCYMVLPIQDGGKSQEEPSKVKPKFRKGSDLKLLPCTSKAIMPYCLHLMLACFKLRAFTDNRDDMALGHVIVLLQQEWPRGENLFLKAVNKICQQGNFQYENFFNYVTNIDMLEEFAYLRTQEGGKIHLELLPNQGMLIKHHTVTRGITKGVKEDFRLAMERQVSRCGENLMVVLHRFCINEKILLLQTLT
UniProt Q5T440: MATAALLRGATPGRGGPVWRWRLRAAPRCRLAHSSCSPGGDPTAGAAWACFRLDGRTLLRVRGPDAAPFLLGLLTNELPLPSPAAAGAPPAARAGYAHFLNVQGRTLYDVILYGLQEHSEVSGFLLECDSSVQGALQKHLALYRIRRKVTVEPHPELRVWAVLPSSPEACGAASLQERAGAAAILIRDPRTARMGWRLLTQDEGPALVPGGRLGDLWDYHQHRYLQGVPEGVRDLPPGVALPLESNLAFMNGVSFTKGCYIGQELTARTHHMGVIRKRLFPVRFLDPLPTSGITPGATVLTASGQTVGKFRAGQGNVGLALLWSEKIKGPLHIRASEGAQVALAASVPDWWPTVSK
UniProt Q14773: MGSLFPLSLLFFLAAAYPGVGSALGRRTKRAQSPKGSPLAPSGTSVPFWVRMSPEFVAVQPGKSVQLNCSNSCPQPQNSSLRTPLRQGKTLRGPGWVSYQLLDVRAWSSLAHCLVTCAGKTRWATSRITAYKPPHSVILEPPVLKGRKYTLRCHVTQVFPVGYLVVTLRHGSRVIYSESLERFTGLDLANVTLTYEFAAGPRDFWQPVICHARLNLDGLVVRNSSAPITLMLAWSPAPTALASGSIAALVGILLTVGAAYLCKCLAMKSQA
UniProt Q9NZI8, whole entry, looked up: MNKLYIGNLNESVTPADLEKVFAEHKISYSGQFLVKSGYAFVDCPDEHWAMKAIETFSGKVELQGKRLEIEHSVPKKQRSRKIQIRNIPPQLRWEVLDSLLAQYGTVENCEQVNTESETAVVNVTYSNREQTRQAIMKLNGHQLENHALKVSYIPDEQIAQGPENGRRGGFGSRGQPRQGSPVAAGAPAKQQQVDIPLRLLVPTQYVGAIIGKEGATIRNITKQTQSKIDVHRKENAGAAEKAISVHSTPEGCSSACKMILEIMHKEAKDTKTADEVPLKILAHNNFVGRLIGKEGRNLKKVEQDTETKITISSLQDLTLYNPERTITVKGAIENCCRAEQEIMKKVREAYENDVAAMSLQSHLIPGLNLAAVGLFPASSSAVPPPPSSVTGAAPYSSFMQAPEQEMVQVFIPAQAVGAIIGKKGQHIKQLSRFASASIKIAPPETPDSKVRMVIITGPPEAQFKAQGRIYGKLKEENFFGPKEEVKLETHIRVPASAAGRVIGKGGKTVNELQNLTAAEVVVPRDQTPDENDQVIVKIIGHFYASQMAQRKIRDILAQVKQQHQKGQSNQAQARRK
UniProt Q9Y2F5: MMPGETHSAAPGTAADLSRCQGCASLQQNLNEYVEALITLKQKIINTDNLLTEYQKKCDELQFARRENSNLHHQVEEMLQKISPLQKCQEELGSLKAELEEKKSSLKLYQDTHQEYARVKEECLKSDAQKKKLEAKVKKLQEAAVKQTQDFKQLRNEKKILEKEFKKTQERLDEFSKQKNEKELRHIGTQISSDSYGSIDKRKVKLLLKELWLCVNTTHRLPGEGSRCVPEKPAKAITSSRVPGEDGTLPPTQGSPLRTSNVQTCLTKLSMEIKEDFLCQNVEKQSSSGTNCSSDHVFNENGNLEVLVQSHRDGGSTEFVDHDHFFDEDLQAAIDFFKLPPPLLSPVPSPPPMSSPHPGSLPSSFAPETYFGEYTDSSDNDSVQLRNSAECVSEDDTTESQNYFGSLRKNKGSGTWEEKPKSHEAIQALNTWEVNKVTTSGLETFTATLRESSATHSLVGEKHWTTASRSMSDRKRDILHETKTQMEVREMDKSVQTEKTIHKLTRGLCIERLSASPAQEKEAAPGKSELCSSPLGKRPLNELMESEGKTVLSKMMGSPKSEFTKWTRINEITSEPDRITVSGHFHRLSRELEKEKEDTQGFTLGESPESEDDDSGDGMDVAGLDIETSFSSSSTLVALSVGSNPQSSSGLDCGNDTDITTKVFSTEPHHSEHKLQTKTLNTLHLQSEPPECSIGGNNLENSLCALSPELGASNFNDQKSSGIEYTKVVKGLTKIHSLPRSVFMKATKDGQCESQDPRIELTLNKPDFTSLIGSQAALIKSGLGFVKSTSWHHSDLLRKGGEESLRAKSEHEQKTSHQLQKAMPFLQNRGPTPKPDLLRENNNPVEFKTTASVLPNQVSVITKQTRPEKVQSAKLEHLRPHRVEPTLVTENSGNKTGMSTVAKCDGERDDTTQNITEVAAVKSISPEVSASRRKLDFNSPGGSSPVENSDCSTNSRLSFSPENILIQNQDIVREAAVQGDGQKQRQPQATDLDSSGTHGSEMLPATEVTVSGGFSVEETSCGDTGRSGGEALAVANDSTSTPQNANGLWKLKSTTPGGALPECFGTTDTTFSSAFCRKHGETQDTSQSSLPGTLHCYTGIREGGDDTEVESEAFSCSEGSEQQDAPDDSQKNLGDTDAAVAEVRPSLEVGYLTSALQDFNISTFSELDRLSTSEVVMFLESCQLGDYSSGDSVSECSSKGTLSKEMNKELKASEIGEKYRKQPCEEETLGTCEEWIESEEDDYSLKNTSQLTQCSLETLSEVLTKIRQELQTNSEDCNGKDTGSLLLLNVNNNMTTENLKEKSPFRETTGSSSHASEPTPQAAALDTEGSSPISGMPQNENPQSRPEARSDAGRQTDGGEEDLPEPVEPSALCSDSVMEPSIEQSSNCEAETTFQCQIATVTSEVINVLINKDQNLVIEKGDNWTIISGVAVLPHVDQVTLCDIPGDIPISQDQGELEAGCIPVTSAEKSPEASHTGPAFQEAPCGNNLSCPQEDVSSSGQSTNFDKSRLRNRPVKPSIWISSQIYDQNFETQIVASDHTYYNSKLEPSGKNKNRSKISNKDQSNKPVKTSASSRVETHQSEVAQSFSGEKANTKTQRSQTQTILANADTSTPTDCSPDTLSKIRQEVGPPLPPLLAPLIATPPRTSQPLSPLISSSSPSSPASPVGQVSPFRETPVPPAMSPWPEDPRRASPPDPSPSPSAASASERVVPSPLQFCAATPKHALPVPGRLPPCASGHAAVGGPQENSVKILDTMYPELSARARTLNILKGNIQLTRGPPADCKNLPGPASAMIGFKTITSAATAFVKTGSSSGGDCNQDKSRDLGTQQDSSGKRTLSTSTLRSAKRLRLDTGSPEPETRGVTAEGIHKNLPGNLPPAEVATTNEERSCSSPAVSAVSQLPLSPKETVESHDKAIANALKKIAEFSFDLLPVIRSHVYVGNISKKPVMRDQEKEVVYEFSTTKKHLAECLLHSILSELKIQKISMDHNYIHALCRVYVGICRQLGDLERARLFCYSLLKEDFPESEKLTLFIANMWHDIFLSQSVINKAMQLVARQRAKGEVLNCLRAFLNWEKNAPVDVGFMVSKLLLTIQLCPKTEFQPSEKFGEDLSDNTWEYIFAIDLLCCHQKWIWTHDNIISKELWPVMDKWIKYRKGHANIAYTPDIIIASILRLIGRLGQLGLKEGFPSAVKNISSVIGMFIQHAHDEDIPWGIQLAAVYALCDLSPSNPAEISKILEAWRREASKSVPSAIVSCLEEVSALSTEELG
UniProt Q96F46, whole entry, looked up: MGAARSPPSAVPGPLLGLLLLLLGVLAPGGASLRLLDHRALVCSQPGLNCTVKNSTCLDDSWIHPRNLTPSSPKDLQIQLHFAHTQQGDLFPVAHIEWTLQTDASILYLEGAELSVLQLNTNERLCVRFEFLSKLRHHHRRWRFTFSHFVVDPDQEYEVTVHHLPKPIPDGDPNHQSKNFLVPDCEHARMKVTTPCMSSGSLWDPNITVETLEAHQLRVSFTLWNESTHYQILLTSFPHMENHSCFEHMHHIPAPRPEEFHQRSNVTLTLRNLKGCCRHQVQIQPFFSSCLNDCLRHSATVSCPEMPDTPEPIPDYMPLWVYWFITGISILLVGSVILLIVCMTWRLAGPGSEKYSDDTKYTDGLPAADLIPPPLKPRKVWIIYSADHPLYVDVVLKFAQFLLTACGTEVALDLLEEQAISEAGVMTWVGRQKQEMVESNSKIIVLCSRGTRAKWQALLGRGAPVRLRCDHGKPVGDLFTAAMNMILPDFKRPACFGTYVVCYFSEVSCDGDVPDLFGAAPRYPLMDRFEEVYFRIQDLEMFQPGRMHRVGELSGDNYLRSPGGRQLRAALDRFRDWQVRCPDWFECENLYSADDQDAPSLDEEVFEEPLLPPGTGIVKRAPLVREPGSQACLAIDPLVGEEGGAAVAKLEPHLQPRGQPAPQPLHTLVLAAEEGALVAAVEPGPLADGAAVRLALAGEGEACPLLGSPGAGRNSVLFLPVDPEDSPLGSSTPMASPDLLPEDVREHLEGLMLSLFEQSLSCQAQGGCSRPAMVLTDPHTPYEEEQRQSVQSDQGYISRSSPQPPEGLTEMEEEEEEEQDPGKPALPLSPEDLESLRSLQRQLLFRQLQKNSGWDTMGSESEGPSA
UniProt Q9Y4L1: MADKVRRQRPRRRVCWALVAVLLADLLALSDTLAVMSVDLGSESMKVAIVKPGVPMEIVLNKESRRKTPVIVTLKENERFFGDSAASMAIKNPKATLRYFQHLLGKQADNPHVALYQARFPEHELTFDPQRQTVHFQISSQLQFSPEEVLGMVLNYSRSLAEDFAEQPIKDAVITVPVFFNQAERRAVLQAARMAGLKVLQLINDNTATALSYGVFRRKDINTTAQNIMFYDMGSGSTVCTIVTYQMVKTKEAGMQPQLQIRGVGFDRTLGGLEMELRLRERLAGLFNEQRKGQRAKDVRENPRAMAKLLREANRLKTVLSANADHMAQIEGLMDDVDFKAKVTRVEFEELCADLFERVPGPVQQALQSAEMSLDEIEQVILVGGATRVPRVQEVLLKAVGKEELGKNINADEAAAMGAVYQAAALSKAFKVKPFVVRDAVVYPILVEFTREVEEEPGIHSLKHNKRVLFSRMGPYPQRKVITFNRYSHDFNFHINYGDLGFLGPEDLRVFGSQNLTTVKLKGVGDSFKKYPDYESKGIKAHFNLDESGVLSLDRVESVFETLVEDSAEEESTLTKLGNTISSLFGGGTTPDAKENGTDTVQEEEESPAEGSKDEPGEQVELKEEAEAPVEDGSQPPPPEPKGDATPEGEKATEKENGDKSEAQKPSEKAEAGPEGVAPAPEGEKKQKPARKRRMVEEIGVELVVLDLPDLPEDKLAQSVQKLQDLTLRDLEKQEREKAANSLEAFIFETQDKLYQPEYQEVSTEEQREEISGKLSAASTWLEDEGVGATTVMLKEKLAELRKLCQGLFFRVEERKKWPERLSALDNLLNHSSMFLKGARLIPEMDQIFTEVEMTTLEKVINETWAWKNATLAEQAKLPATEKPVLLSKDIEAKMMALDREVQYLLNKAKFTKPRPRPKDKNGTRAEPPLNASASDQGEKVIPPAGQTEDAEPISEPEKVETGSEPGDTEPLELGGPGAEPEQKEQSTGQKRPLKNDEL

Key:
Test in all cases: log2 fold change, soluble protein after heating vs DMSO (PISA); higher = thermal stabilisation; K562 lysate, 10 uM; active = over 0.2 and 3.5 SD of the protein, either way, in both replicates (recomputed)
[1] = compound: C1=CC=C(C=C1)[C@H](COC2=CC3=C(C=C2)NC(=O)N3)NC(=O)C4=CC=CN(C4=O)CC5=CC(=C(C=C5)F)F
How it was run: (§1)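 Values give the log-two fold change in thermal stability against solvent controls, from duplicates. Crude K562 extract at 1 mg/mL protein, made by dounce homogenisation in PBS pH 7.4 with 1 mM MgCl2, was treated with 10 μM compound for 30 min. After 3 min heating across 48°C-58°C, aliquots were pooled, adjusted to 0.5% NP-40 at 4°C and centrifuged at 21,000xg for 90 min. The supernatant was measured by TMTpro 16plex LC-MS/MS with channel sums equalised.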

[2] = compound: CC1=C(SC2=C1C(=N[C@H](C3=NN=C(N32)C)CC(=O)N)C4=CC=C(C=C4)Cl)C
How it was run: as §1

[3] = compound: CC1=C2C(=CC=C1)N=C(N(C2=O)C3=CC=CC=C3C)CN4C=NC5=C(N=CN=C54)N
How it was run: as §1

[4] = compound: Cc1sc2c(c1C)C(c1ccc(Cl)cc1)=N[C@@H](CC(=O)OC(C)(C)C)c1nnc(C)n1-2
How it was run: as §1

[5] = compound: c1ccc([C@@H]2C[C@H]2NC2CCNCC2)cc1
How it was run: as §1

Measured: log2 fold change

HTATIP2 isoform 3 (UniProt Q9BUP3)
inactive: [1] -0.024 | [2] -0.005 | [3] 0.036 | [4] 0.006 | [5] 0.055

ILKAP (UniProt Q9H0C8)
inactive: [1] -0.004 | [2] -0.004 | [3] -0.013 | [4] 0.013 | [5] 0.009

IBTK (UniProt Q9P2D0)
inactive: [1] 0.001 | [2] -0.016 | [3] -0.026 | [4] 0.03 | [5] 0.055

IMPA2 (UniProt O14732)
inactive: [1] 0.035 | [2] 0.008 | [3] 0.056 | [4] -0.011 | [5] -0.075

IFT20 isoform 2 (UniProt Q8IY31)
inactive: [1] 0.004 | [2] -0.024 | [3] -0.088 | [4] -0.046 | [5] -0.117

HSPG2 (UniProt P98160)
inactive: [1] -0.02 | [2] 0.053 | [3] 0.036 | [4] -0.034 | [5] -0.067

IMP3 (UniProt Q9NV31)
inactive: [1] -0.023 | [2] 0.045 | [3] 0.08 | [4] -0.007 | [5] -0.057

IDE, A0A3B3ISG5
inactive: [1] -0.009 | [2] -0.004 | [3] -0.006 | [4] -0.01 | [5] 0.03

INTS1 (UniProt Q8N201)
inactive: [1] -0.017 | [2] 0.065 | [3] -0.045 | [4] 0.019 | [5] 0.004

ICAM2 (UniProt P13598)
inactive: [1] 0.03 | [2] -0.025 | [3] -0.006 | [4] -0.022 | [5] 0.084

ILF3 isoform 7 (UniProt Q12906)
inactive: [1] -0.003 | [2] 0.013 | [3] 0.007 | [4] -0.02 | [5] 0.002

INTS13 (UniProt Q9NVM9)
inactive: [1] -0.012 | [2] -0.044 | [3] 0.016 | [4] 0 | [5] -0.012

IFT80 isoform 3 (UniProt Q9P2H3)
inactive: [1] -0.056 | [2] 0.03 | [3] -0.126 | [4] -0.082 | [5] 0.042

IFRD1 (UniProt O00458)
inactive: [1] -0.06 | [2] -0.055 | [3] -0.096 | [4] -0.043 | [5] 0.072

ID1 (UniProt P41134)
inactive: [1] 0.087 | [2] 0.02 | [3] 0.038 | [4] 0.051 | [5] 0.017

IMPACT (UniProt Q9P2X3)
inactive: [1] 0.093 | [2] -0.07 | [3] -0.18 | [4] -0.067 | [5] -0.13

IMMT (UniProt C9J406)
inactive: [1] -0.055 | [2] 0.041 | [3] 0.049 | [4] 0.077 | [5] -0.056

IMMP2L (UniProt Q96T52)
inactive: [1] -0.084 | [2] -0.001 | [3] 0.001 | [4] -0.047 | [5] -0.001

ILVBL (UniProt A1L0T0)
inactive: [1] 0.068 | [2] 0.068 | [3] 0.023 | [4] 0.029 | [5] -0.04

INPP1 (UniProt P49441)
inactive: [1] 0.062 | [2] 0.066 | [3] 0.051 | [4] 0.009 | [5] 0.015

ILF3 (UniProt Q12906)
inactive: [1] 0.063 | [2] -0.134 | [3] 0.077 | [4] -0.026 | [5] -0.267

INPPL1 (UniProt O15357)
inactive: [1] 0.014 | [2] 0.029 | [3] -0.021 | [4] 0.012 | [5] 0.021

IDH3A isoform 2 (UniProt P50213)
inactive: [1] -0.017 | [2] 0.039 | [3] -0.029 | [4] -0.124 | [5] -0.119

HSPE1 (UniProt P61604)
inactive: [1] -0.019 | [2] -0.052 | [3] -0.01 | [4] 0.007 | [5] -0.021

IMPA1 isoform 3 (UniProt P29218)
inactive: [1] 0.003 | [2] -0.03 | [3] -0.023 | [4] -0.003 | [5] 0.026

INPP4A (UniProt Q96PE3)
inactive: [1] -0.079 | [2] 0.112 | [3] 0.027 | [4] 0.036 | [5] 0.017

INPP5F (UniProt Q9Y2H2)
inactive: [1] -0.066 | [2] 0.115 | [3] 0.131 | [4] -0.144 | [5] -0.24

INTS10 (UniProt Q9NVR2)
inactive: [1] -0.015 | [2] -0.057 | [3] 0.023 | [4] -0.077 | [5] -0.003

HTT (UniProt P42858)
inactive: [1] 0.039 | [2] -0.088 | [3] 0.064 | [4] 0.066 | [5] -0.054

HSPA8 (UniProt P11142)
inactive: [1] 0.002 | [2] -0.014 | [3] -0.004 | [4] -0.004 | [5] 0.006

IBA57 (UniProt Q5T440)
inactive: [1] -0.002 | [2] 0.028 | [3] -0.016 | [4] -0.046 | [5] 0.014

IKZF1 (UniProt Q13422)
inactive: [1] -0.064 | [2] -0.024 | [3] -0.05 | [4] -0.073 | [5] 0.138

HSPB11 (UniProt Q9Y547)
inactive: [1] -0.025 | [2] 0.018 | [3] 0 | [4] -0.047 | [5] 0.002

IMPDH2 (UniProt P12268)
inactive: [1] 0 | [2] -0.014 | [3] -0.007 | [4] 0.045 | [5] 0.017

IGSF3 (UniProt O75054)
inactive: [1] -0.009 | [2] -0.017 | [3] 0.046 | [4] 0.014 | [5] 0.017

INTS11 (UniProt Q5TA45)
inactive: [1] -0.019 | [2] -0.001 | [3] 0.04 | [4] 0.034 | [5] 0.042

IDH1 (UniProt O75874)
inactive: [1] -0.028 | [2] 0.01 | [3] 0.043 | [4] 0.025 | [5] 0.016

IL18 (UniProt Q14116)
inactive: [1] 0.032 | [2] -0.06 | [3] 0.004 | [4] -0.034 | [5] -0.027

IGF2BP2 (UniProt Q9Y6M1)
inactive: [1] -0.041 | [2] -0.004 | [3] 0.012 | [4] 0.022 | [5] 0.008

ICAM4 isoform 3 (UniProt Q14773)
inactive: [1] 0.054 | [2] 0.027 | [3] -0.005 | [4] -0.376 | [5] -0.008

IGF2BP1 (UniProt Q9NZI8)
inactive: [1] -0.015 | [2] 0.026 | [3] 0.028 | [4] 0.042 | [5] 0.012

Retrieved one by one from the list above, 2 records:
IGF2BP2 (UniProt Q9Y6M1)
inactive: [1] -0.041 | [2] -0.004 | [3] 0.012 | [4] 0.022 | [5] 0.008

IDH1 (UniProt O75874)
inactive: [1] -0.028 | [2] 0.01 | [3] 0.043 | [4] 0.025 | [5] 0.016

Following part:

ICE1 (UniProt Q9Y2F5)
inactive: [1] 0.247 | [2] -0.06 | [4] 0.034 | [5] 0.019

IL27RA (UniProt Q6UWB1)
inactive: [1] -0.013 | [2] 0.088 | [4] -0.067 | [5] -0.05

IGSF8 (UniProt Q969P0)
inactive: [1] -0.093 | [2] 0.02 | [3] 0.021 | [4] 0.01 | [5] -0.058

IL17RA (UniProt Q96F46)
inactive: [1] -0.228 | [2] -0.044 | [4] 0.092 | [5] -0.174

IMMP1L (UniProt Q96LU5)
inactive: [1] -0.081 | [2] -0.004 | [4] 0.052 | [5] 0.006

HSPH1 (UniProt Q5TBM3)
inactive: [1] 0.209 | [2] 0.026 | [5] 0.161

HUWE1, A0A087X1S3
inactive: [1] 0.151 | [2] -0.088 | [4] 0.055 | [5] -0.187

IFT74 (UniProt Q96LB3)
inactive: [1] 0.028 | [2] 0.019 | [3] 0.06 | [4] -0.07 | [5] -0.108

HYOU1 (UniProt Q9Y4L1)
inactive: [1] 0.014 | [2] 0.015 | [3] 0.004 | [4] -0.009 | [5] 0.005

HTD2 (UniProt P86397)
inactive: [1] 0.06 | [2] -0.048 | [3] 0.007 | [5] -0.107

IGHG3 (UniProt P01860)
inactive: [1] 1.15 | [2] -0.072 | [5] -0.281

IGKC (UniProt P01834)
inactive: [1] -0.017 | [2] -0.247 | [4] -0.095 | [5] -0.296

HSPA8 (UniProt E9PN89)
inactive: [1] 0.003 | [2] 0.044 | [4] -0.219 | [5] -0.393

HSPH1 isoform 2 (UniProt Q92598)
inactive: [1] 0.069 | [2] 0.389 | [4] -0.215
